Patent US20030186997A1, “2,5-Dihydro-pyrazolo[3,4-d]pyrimidin-4-ones with an anticonsulsive action and methods for producing the same” (priority 2000, published 2003)
Some entries share one result that the patent states for a list of compounds.

Assay: Neurotoxicity (NT50)
Format: in vivo
Conditions: rat
Procedure: This compound is also active in convulsion models using bicuculline and picrotoxin as convulsion-inducing cause. Compound 14 (5-(2-methylbenzyl)-2-methyl-2,5-dihydropyrazolo[3,4-d]pyrimidin-4-one) is likewise strongly anticonvulsant with a large therapeutic breadth (ED50 (rat p.o.) =9 mg/kg, NT50>300 mg/kg). Compound 21 has a similar pharmacological profile (ED50 (rat p.o.) =3 mg/kg, NT50>300 mg/kg).

Structure (SMILES)	NT50 (neurotoxicity) [mg/kg]
Cc1ccccc1Cn1cnc2nn(C)cc2c1=O [Compound 14, 5-(2-methylbenzyl)-2-methyl-2,5-dihydropyrazolo[3,4-d]-pyrimidin-4-one]	> 300
Cn1cc2c(=O)n(Cc3c(F)cccc3F)cnc2n1 [Compound 21, 5-(2,6-difluorobenzyl)-2-methyl-2,5-dihydropyrazolo[3,4-d]pyrimidin-4-one]	> 300
